Data: US12595239B2, “Substituted isoxazoline derivatives” (BASF SE, priority 2021, dated 2026)
Some of these results come from one statement about several compounds together. For at least one compound, name, drawing or mass did not settle the structure.

Key:
Type in all cases: in vivo
Plutella xylostella = experiment: B.6 Diamond Back Moth, cabbage leaf disc dip test; conditions: 300 ppm; 3rd instar larvae, 72 hours after treatment
Procedure, shortened: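 Cabbage leaf discs were dipped in compound in 1:1 water:acetone with 0.01% surfactant, air-dried, then infested with ten 3rd instar larvae. Mortality read at 72 h after treatment, with feeding damage scored on a 0–100% scale.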

Aedes aegypti = conditions: 2500 ppm; larval mortality, 2 days
Heliothis virescens = experiment: B.4 Tobacco Budworm, microtiter plate diet test; conditions: 2500 ppm; egg and larval mortality, 5 days
Procedure, shortened: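 Compounds in 25% DMSO/75% water sprayed at various concentrations onto diet in microtiter wells each holding 15-25 H. virescens eggs, two replicates. Plates kept 5 days at about 28±1 °C and 80±5% relative humidity; egg and larval mortality then scored visually.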

Nephotettix virescens = experiment: B.9 Rice Green Leafhopper, rice seedling spray test; conditions: 300 ppm; adults, after 72 hours
Procedure: Four to five-week old rice seedlings with cut upper leaf portion were cleaned and washed 24 hours before spraying. The active compounds were formulated in 1:1 acetone:water (vol:vol), and 0.01% vol/vol surfactant (Kinetic) was added. Potted rice seedlings were sprayed with 5-6 ml test solution, air dried, covered with Mylar cages and inoculated with 10 adults. Treated rice plants were kept at about 28-29° C. and relative humidity of about 50-60%. Percent mortality was recorded after 72 hours.

Bemisia argentifolii = experiment: B.12 Silverleaf Whitefly (adults), cotton plant spray test; conditions: 300 ppm, 3 days after treatment
Procedure: The active compounds were formulated by a Tecan liquid handler in 100% cyclohexanone as a 10,000-ppm solution supplied in tubes. The 10,000-ppm solution was serially diluted in 100% cyclohexanone to make interim solutions. These served as stock solutions for which final dilutions were made by the Tecan in 50% acetone:50% water (v/v) into 5 or 10 ml glass vials. A nonionic surfactant (Kinetic®) was included in the solution at a volume of 0.01% (v/v). The vials were then inserted into an automated electrostatic sprayer equipped with an atomizing nozzle for application to plants/insects. Cotton plants at the cotyledon stage (one plant per pot) were sprayed by an automated electrostatic plant sprayer equipped with an atomizing spray nozzle. The plants were dried in the sprayer fume hood and then removed from the sprayer. Each pot was placed into a plastic cup and about 10 to 12 whitefly adults (approximately 3-5 days old) were introduced. The insects were collected using an aspirator and a nontoxic Tygon® tubing connected to a barrier pipette tip. The tip, containing the collected insects, was then gently inserted into the soil containing the treated plant, allowing insects to crawl out of the tip to reach the foliage for feeding. Cups were covered with a reusable screened lid. Test plants were maintained in a growth room at about 25° C. and about 20-40% relative humidity for 3 days, avoiding direct exposure to fluorescent light (14:10 light:dark photoperiod) to prevent trapping of heat inside the cup. Mortality was assessed 3 days after treatment, compared to untreated control plants.

Myzus persicae = experiment: B.3 Green Peach Aphid (mixed life stages), systemic artificial diet test; conditions: 2500 ppm; treated aphid diet, 3 days
Procedure, shortened: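 Compounds, formulated in 25% DMSO/75% water, were mixed at several concentrations into liquid artificial diet under a membrane, two replicates. 5–8 adult aphids fed on treated diet for 3 days at about 23±1 °C, 50±5% RH. Mortality and fecundity were scored visually.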

Spodoptera eridania = experiment: B.11 Southern Armyworm 2nd instar larvae, lima bean foliar spray test; conditions: 300 ppm, 4 days after treatment
Procedure, shortened: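 Compounds diluted in 50% acetone/water with 0.01% nonionic surfactant and electrostatically sprayed onto lima bean plants (Sieva) at 1st true leaf stage. After drying, 10–11 larvae per bagged pot, held at about 25 °C, 20–40% RH, 14:10 photoperiod. Mortality and reduced feeding scored at 4 days versus untreated plants.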

Anthonomus grandis = experiment: B.1 Boll weevil (Anthonomus grandis), 96-well microtiter plate diet test; conditions: 2500 ppm; egg and larval mortality, 5 days
Dichromothrips corbetti = experiment: B.7 Orchid Thrips, floral-immersion test; conditions: 300 ppm; adult thrips, 72 hours after treatment
Procedure, shortened: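 Orchid petals were dipped in compound diluted in 1:1 acetone:water with 0.01% v/v Kinetic, dried, then sealed with about 20 lab-colony adult thrips. Arenas were held in the dark at about 28 °C, and percent mortality was scored 72 h after treatment.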

Nezara viridula = experiment: B.8 Green Soldier Stink Bug, soybean pod spray test; conditions: 300 ppm; late 3rd instar, after 5 days
Tetranychus kanzawai = experiment: B.10 Red Spider Mite, cowpea bean spray test; conditions: 300 ppm; 72 hours after treatment
Procedure: The active compound was dissolved at the desired concentration in a mixture of 1:1 (vol:vol) distilled water:acetone. Add surfactant (Kinetic) was added at a rate of 0.01% (vol/vol). The test solution was prepared at the day of use. Potted cowpea beans of 4-5 days of age were cleaned with tap water and sprayed with I-2 ml of the test solution using air driven DeVilbiss® hand atomizer at 20-30 psi (≈1,38 to 2,07 bar). The treated plants were allowed to air dry and afterwards inoculated with 30 or more mites by clipping a cassava leaf section from rearing population. Treated plants were placed inside a holding room at about 25-26° C. and about 65-70% relative humidity. Percent mortality was assessed 72 hours after treatment.

Measured: mortality in comparison with untreated controls

O=C(Nc1ccc(F)cc1F)c1cc(NC2=NOC(c3cc(Cl)c(F)c(Cl)c3)(C(F)(F)F)C2)ccc1Cl (stereo not drawn) [I-24]
not listed: Tetranychus kanzawai
at least 75%: all other assays above

CCN1OCC(NC(=O)c2cc(NC3=NOC(c4cc(Cl)cc(Cl)c4)(C(F)(F)F)C3)ccc2F)C1=O (stereo not drawn) [I-104]
not listed: Nephotettix virescens | Bemisia argentifolii
at least 75%: all other assays above

CN(C1=NOC(c2cc(Cl)c(F)c(Cl)c2)(C(F)(F)F)C1)c1ccc(Cl)c(C(=O)Nc2ccc(F)cc2F)c1 (stereo not drawn) [I-116]
not listed: Bemisia argentifolii | Spodoptera eridania | Tetranychus kanzawai
at least 75%: all other assays above

CN(C1=NOC(c2cc(Cl)c(F)c(Cl)c2)(C(F)(F)F)C1)c1ccc(Cl)c(C(=O)NC2(C#N)CC2)c1 (stereo not drawn) [I-115]
not listed: Bemisia argentifolii | Tetranychus kanzawai
at least 75%: all other assays above

CN(C1=NOC(c2cc(Cl)c(F)c(Cl)c2)(C(F)(F)F)C1)c1ccc(Cl)c(C(=O)N(C)C2(C#N)CC2)c1 (stereo not drawn) [I-120]
not listed: Bemisia argentifolii | Spodoptera eridania | Tetranychus kanzawai
at least 75%: all other assays above

CN(C1=NOC(c2cc(Cl)cc(Cl)c2)(C(F)(F)F)C1)c1ccc(Cl)c(C(=O)Nc2ccnc(C(C)(C)C#N)c2)c1 (stereo not drawn) [I-126]
not listed: Nezara viridula | Tetranychus kanzawai
at least 75%: all other assays above

N#CC1(NC(=O)c2cc(NC3=NOC(c4cc(Cl)cc(C(F)(F)F)c4)(C(F)(F)F)C3)ccc2Cl)CC1 (stereo not drawn) [I-132]
not listed: Nephotettix virescens | Bemisia argentifolii | Spodoptera eridania
at least 75%: all other assays above

N#CC1(NC(=O)c2cc(NC3=NOC(c4cc(Cl)c(F)c(Cl)c4)(C(F)(F)F)C3)ccc2Cl)CC1 (stereo not drawn) [I-27]
not listed: Nephotettix virescens | Bemisia argentifolii
at least 75%: all other assays above

CCN1OCC(NC(=O)c2cc(NC3=NOC(c4cc(Cl)cc(Cl)c4)(C(F)(F)F)C3)ccc2Cl)C1=O (stereo not drawn) [I-9]
at least 75%: Tetranychus kanzawai

CCN1OCC(NC(=O)c2cc(NC3=NOC(c4cc(Cl)c(F)c(Cl)c4)(C(F)(F)F)C3)ccc2C)C1=O (stereo not drawn) [I-150]
not listed: Nephotettix virescens | Bemisia argentifolii
at least 75%: all other assays above

O=C(Nc1ccc(F)cc1F)c1cc(NC2=NOC(c3cc(Cl)cc(Cl)c3)(C(F)(F)F)C2)ccc1F (stereo not drawn) [I-75]
not listed: Nezara viridula | Tetranychus kanzawai
at least 75%: all other assays above

O=C(Nc1ccc(F)cc1F)c1cc(NC2=NOC(c3ccc(F)c(C(F)(F)F)c3)(C(F)(F)F)C2)ccc1Cl (stereo not drawn) [I-32]
not listed: Tetranychus kanzawai
at least 75%: all other assays above

O=C(Nc1ccc(F)cc1F)c1cc(NC2=NOC(c3cc(Cl)cc(Cl)c3)(C(F)(F)F)C2)ccc1Cl (stereo not drawn) [I-137]
at least 75%: Nephotettix virescens | Bemisia argentifolii | Spodoptera eridania
